For at least one compound, name, drawing or mass did not settle the structure. Where no end group is shown, it is not given here.
System: Erk1/Erk2 phosphorylation in skin fibroblasts
Assay: Bradykinin-induced Erk1/2 phosphorylation / ADSMB in skin fibroblasts of AD, non-AD dementia and control subjects
Type: cell-based, human
Settings: for Erk1/2 phosphorylation in AD fibroblasts vs. non-AD dementia and non-demented control fibroblasts: bradykinin 10 nM, 10 min at 37° C.

Question: Which “Erk1/2 phosphorylation in AD fibroblasts vs. non-AD dementia and non-demented control fibroblasts” value does the source give for RPPGFSPFR [Bradykinin] here?
Answer: The value was “greater phosphorylation of Erk1/2”.

Question: And the “Erk1/2 phosphorylation in AD fibroblasts vs. non-AD dementia and non-demented control fibroblasts” value (listed as BK)?
Answer: Its value is “higher for AD cell lines”.

Question: And the “ADSMB in non-dementia age-matched control cells” value (bradykinin minus vehicle, AC cells, FIG. 1)?
Answer: The value was “less than 0.01”.

Question: What about the “ADSMB in Mixed AD/PD/LBD cells” value (bradykinin minus vehicle, mixed pathologies, FIG. 1) of the same sequence?
Answer: The value was “less than 0.02”.

Question: What about the “ADSMB in non-ADD cells” value (bradykinin minus vehicle, non-Alzheimer's Disease dementia cells, FIG. 1) of the same sequence?
Answer: The value was “negative values”.

Source: patent publication US9797913B2, “Alzheimer's disease-specific alterations of the ERK1/ERK2 phosphorylation ratio-alzheimer's disease-specific molecular biomarkers (ADSMB)” (BLANCHETTE ROCKEFELLER NEUROSCIENCES INSTITUTE, priority 2005, dated 2017)
